Measurements published in the supplement of paper PMC10849652.
The other results are listed elsewhere or left out.

Protein sequences, listed by entry. Tags and fused reporters are not part of them. Lines headed by an entry give the natural chain unless they say otherwise; changes in a name come on top.
UniProt Q07021: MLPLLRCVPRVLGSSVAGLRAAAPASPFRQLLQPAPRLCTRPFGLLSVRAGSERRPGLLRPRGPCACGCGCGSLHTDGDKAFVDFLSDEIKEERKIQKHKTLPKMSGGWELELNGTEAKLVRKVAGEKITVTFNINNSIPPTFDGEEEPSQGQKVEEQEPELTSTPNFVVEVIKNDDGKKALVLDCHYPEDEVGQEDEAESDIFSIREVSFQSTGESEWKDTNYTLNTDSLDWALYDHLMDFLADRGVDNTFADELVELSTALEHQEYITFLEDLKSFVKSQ
UniProt O95873: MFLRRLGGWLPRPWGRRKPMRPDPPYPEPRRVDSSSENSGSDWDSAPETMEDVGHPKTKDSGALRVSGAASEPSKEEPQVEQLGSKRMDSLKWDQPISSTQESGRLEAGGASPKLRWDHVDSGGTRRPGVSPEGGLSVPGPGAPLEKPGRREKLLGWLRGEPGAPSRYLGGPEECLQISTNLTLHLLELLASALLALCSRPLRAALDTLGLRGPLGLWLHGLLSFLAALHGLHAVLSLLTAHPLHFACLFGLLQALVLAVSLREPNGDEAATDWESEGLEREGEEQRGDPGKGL
UniProt Q9BVC5: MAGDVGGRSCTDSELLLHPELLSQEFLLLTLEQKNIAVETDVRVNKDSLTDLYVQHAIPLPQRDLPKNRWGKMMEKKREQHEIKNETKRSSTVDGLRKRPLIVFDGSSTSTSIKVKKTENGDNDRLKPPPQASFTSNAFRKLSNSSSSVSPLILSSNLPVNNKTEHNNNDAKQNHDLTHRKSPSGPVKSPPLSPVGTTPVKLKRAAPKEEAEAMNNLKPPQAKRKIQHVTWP
UniProt Q01518, whole entry, looked up: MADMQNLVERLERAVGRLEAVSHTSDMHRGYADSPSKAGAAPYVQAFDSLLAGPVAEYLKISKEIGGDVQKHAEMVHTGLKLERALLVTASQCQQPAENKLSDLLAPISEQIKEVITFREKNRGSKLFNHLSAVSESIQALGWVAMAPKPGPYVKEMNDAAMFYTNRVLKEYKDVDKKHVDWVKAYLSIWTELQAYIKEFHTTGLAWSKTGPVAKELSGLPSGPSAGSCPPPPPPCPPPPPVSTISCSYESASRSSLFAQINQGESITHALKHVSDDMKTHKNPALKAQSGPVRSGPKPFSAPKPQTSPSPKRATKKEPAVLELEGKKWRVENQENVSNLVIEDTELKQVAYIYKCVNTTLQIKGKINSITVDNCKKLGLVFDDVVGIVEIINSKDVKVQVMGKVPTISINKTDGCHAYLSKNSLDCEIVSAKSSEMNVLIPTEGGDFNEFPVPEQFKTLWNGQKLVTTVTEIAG
UniProt O75155: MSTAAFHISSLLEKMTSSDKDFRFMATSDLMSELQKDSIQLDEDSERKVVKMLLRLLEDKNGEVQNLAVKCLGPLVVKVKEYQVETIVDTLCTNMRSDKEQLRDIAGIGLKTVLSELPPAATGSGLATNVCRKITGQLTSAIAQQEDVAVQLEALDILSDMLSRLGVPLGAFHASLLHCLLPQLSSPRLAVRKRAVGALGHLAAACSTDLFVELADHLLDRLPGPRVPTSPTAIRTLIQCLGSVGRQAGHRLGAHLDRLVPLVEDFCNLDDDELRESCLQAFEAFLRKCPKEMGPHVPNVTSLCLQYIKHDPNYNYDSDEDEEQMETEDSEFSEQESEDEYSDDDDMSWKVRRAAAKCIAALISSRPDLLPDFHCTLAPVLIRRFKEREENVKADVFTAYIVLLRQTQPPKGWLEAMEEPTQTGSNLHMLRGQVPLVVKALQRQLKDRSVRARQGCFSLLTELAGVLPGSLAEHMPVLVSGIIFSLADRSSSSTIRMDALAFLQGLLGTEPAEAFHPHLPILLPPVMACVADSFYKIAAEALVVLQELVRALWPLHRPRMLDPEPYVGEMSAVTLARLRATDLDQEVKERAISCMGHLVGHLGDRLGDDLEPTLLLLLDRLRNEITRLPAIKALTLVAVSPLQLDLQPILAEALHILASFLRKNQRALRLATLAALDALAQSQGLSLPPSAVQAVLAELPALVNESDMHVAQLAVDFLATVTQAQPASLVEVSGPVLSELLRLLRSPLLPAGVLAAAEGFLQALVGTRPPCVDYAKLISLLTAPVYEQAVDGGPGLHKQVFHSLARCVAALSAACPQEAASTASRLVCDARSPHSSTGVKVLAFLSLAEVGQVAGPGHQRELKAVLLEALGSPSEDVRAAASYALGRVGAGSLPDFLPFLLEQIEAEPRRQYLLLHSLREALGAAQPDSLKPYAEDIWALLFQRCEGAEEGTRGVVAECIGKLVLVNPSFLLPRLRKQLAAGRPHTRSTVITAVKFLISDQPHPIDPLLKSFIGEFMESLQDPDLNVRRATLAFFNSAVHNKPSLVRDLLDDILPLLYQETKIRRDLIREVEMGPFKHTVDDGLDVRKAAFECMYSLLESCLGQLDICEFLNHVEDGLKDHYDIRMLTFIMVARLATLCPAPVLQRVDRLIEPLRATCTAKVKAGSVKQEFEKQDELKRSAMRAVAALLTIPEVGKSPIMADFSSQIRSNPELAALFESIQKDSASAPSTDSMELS
UniProt Q96K31: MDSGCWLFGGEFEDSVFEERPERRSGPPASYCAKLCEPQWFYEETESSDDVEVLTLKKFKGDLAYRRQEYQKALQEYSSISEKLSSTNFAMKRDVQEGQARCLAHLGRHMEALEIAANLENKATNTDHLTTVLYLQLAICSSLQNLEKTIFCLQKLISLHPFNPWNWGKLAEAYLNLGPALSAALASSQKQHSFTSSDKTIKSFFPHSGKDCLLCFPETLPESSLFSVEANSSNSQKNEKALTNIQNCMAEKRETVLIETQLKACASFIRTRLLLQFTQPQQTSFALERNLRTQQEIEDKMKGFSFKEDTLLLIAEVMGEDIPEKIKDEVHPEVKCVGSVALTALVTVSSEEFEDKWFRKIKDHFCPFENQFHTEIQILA
UniProt P47756, whole entry, looked up: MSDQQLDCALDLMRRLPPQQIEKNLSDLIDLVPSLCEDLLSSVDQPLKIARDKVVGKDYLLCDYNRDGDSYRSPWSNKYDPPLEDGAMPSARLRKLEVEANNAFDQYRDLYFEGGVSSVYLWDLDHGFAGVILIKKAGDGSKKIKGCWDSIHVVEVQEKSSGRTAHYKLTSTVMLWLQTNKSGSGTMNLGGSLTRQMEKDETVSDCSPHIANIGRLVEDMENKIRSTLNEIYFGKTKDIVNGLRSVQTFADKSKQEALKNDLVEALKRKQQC
UniProt Q8N5I9: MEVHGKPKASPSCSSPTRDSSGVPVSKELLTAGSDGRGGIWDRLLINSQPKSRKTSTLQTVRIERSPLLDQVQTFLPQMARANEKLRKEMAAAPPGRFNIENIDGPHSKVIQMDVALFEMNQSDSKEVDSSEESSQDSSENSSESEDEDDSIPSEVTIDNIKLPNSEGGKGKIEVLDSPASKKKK
UniProt Q86YS7: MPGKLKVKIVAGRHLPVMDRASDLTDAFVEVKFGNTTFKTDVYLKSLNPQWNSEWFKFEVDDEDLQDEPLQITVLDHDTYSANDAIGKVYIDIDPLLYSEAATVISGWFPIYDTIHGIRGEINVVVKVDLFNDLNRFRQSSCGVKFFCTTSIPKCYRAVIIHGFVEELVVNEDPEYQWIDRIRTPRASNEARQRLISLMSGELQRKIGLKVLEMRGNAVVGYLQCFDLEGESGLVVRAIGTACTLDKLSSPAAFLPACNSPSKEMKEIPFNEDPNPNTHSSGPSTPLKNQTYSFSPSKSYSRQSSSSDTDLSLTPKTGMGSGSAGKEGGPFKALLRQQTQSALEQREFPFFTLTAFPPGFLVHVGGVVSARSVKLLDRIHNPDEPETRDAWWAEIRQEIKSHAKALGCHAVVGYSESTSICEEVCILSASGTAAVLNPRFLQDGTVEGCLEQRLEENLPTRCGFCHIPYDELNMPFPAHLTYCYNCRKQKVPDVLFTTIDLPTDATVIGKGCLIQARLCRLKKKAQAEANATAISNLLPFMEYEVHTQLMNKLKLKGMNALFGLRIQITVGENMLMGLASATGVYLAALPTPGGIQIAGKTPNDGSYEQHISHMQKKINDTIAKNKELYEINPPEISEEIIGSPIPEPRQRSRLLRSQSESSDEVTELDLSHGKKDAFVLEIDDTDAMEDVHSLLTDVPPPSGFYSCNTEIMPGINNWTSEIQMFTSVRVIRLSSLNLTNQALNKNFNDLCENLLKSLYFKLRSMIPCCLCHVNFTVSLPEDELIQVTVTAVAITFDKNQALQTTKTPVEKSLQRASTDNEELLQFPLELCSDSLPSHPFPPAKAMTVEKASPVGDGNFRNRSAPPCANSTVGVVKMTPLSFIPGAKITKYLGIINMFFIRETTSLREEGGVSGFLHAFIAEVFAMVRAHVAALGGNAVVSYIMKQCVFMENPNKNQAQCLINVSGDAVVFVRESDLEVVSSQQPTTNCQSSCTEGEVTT
UniProt Q9H425: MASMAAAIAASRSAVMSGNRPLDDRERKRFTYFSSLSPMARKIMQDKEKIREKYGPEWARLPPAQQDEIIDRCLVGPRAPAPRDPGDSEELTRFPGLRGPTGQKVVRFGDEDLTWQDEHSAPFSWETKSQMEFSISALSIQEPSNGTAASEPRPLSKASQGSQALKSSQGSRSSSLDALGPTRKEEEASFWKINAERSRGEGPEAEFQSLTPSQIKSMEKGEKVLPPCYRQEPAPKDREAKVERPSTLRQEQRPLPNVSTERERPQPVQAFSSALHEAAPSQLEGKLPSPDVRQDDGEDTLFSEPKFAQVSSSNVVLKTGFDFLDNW
UniProt Q96EU7: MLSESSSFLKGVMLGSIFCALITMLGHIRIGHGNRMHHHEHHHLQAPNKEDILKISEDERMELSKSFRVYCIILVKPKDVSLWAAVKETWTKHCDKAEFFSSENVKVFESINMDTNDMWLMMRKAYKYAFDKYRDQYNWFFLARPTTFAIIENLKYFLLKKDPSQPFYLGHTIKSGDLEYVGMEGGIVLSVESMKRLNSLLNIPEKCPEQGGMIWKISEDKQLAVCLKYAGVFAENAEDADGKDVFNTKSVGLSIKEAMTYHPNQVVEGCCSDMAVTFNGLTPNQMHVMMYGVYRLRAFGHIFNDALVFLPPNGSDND
UniProt Q9HB71, whole entry, looked up: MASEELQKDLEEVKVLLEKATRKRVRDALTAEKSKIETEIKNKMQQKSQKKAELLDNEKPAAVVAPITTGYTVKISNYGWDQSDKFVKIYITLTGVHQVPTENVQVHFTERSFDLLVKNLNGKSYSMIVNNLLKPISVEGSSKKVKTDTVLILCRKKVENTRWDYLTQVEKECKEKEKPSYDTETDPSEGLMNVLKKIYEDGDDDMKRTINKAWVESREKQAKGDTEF
UniProt Q9BSJ5: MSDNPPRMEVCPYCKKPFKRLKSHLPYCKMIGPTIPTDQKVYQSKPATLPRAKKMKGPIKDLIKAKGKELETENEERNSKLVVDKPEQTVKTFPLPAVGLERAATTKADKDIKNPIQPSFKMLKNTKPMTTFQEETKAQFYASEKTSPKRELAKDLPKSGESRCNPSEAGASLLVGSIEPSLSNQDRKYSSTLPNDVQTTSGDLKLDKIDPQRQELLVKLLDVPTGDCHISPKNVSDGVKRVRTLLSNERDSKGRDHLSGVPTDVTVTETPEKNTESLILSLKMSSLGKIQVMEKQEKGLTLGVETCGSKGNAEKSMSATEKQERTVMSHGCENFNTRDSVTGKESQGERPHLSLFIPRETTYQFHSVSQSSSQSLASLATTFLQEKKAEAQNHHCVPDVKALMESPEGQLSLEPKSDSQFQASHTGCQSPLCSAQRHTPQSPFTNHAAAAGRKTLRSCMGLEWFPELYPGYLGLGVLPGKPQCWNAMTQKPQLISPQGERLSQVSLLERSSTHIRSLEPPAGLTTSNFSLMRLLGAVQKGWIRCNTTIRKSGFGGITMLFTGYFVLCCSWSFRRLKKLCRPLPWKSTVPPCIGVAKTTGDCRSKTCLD
UniProt Q8N6N3: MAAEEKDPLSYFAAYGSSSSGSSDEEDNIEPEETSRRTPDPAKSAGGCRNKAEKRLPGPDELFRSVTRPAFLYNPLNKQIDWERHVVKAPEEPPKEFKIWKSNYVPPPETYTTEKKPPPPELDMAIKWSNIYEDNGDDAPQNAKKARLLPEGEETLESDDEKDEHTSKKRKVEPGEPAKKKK
UniProt Q7KYR7: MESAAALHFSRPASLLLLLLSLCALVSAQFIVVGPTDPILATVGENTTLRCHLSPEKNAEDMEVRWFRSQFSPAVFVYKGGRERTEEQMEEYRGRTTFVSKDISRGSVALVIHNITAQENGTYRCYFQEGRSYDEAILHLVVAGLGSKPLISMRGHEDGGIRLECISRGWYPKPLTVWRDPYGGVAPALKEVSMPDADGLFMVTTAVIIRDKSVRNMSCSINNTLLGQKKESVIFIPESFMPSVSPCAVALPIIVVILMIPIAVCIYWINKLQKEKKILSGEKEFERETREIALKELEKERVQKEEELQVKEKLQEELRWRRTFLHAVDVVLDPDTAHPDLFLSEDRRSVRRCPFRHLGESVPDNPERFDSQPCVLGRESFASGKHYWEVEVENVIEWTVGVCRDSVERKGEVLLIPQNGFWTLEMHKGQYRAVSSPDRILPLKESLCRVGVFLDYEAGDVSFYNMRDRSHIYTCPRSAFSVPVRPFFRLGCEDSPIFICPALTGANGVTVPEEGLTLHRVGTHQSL

The targets below were run with CCn1cc(-c2ccnc3[nH]c(-c4cccc(CN(C)C)c4)cc23)c(-c2ccc(NC(=O)N(C)C)cc2)n1 (assay: log2 fold change, soluble protein after heating vs DMSO (PISA); higher = thermal stabilisation; K562 cells, 10 uM, 30 min; active = over 0.2 and 3.5 SD of the protein, either way, in both replicates (recomputed)).
Procedure, shortened: (§1)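 K562 cells at 2×10^6 cells/mL were exposed to 10 μM compound for 30 min, then aliquots were heated for 3 min across 48°C-58°C, pooled, and extracted in PBS containing 0.5% NP-40 at 4°C. The supernatant after 21,000xg for 90 min was taken as soluble protein and measured by TMTpro 16plex LC-MS/MS with channel sums equalised. Thermal stability is reported relative to control samples, with values from duplicates. Fold changes are given on a log2 scale.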

log2 fold change, inactive:
C1QBP (UniProt Q07021) -0.063
BUB1 (UniProt O43683) 0.042
C6orf47 (UniProt O95873) -0.009
C2orf49 (UniProt Q9BVC5) -0.026
C17orf75 (UniProt Q9HAS0) -0.009
CAP1 (UniProt Q01518) -0.084
CAND2 (UniProt O75155) -0.02
C8orf76 (UniProt Q96K31) 0.01
CAPN1 (UniProt P07384) -0.056
CAPZB (UniProt P47756) -0.016
BTF3L4 (UniProt Q96K17) -0.005
C12orf45 (UniProt Q8N5I9) 0.03
C1GALT1 (UniProt Q9NS00) -0.062
C2orf69 (UniProt Q8N8R5) 0.101
C5orf22 (UniProt Q49AR2) -0.07
C2CD5 isoform 4 (UniProt Q86YS7) -0.086
C3orf33 (UniProt Q6P1S2) 0.057
C1orf198 (UniProt Q9H425) 0.037
CARD8 isoform 5 (UniProt Q9Y2G2) -0.018
C1orf131 isoform 5 (UniProt Q8NDD1) 0.306
C3 (UniProt P01024) -0.09
C1GALT1C1 (UniProt Q96EU7) -0.006
CAPN7 (UniProt Q9Y6W3) -0.049
C15orf40 (UniProt Q8WUR7) -0.043
CACYBP (UniProt Q9HB71) -0.024
CAPG (UniProt P40121) -0.033
C17orf80 (UniProt Q9BSJ5) 0.012
C1orf52 (UniProt Q8N6N3) -0.034
BTN2A1 (UniProt Q7KYR7) 0.012
C11orf98 (UniProt E9PRG8) 0.238

These targets were tested with CN(C)CC(=O)Nc1ccc2[nH]c(=O)c3ccccc3c2c1 in the same assay as above.
Procedure, shortened: as §1

log2 fold change, inactive:
C1QBP (UniProt Q07021) -0.023
BUB1 (UniProt O43683) -0.031
C6orf47 (UniProt O95873) -0.053
C2orf49 (UniProt Q9BVC5) -0.012
C17orf75 (UniProt Q9HAS0) 0.08
CAP1 (UniProt Q01518) -0.022
CAND2 (UniProt O75155) -0.066
C8orf76 (UniProt Q96K31) -0.075
CAPN1 (UniProt P07384) -0.012
CAPZB (UniProt P47756) -0.025
BTF3L4 (UniProt Q96K17) 0.003
C12orf45 (UniProt Q8N5I9) -0.006
C1GALT1 (UniProt Q9NS00) 0.039
C2orf69 (UniProt Q8N8R5) -0.006
C5orf22 (UniProt Q49AR2) -0.044
C2CD5 isoform 4 (UniProt Q86YS7) 0.032
C3orf33 (UniProt Q6P1S2) -0.075
C1orf198 (UniProt Q9H425) 0.035
CARD8 isoform 5 (UniProt Q9Y2G2) 0.043
C1orf131 isoform 5 (UniProt Q8NDD1) -0.193
C3 (UniProt P01024) -0.153
C1GALT1C1 (UniProt Q96EU7) 0.024
CAPN7 (UniProt Q9Y6W3) 0.009
C15orf40 (UniProt Q8WUR7) -0.052
CACYBP (UniProt Q9HB71) 0.004
CAPG (UniProt P40121) 0.014
C17orf80 (UniProt Q9BSJ5) -0.05
C1orf52 (UniProt Q8N6N3) -0.005
BTN2A1 (UniProt Q7KYR7) 0.003
C11orf98 (UniProt E9PRG8) -0.109
